Values quoted from earlier work in patent publication US20100291155A1, “ALLERGY VACCINE COMPOSITION FOR MUCOSAL ADMINISTRATION” (ALK-Abello A/S, priority 2008, published 2010).
Some entries share one result that the patent states for a list of compounds.

Test system: IgE
Conditions: group of mite allergic individuals; cited from earlier work

Molecule | share of mite allergic individuals whose serum IgE binds the allergen
nDer p 1: major house dust mite allergen, a 25371 Da papain-like cysteine protease purified from D. pteronyssinus (protein, UniProt P08176 99-320, looked up) Peptidase 1: TNACSINGNAPAEIDLRQMRTVTPIRMQGGCGSCWAFSGVAATESAYLAYRNQSLDLAEQELVDCASQHGCHGDTIPRGIEYIQHNGVVQESYYRYVAREQSCRRPNAQRFGISNYCQIYPPNVNKIREALAQTHSAIAVIIGIKDLDAFRHYDGRTIIQRDNGYQPNYHAVNIVGYSNAQGVDYWIVRNSWDTNWGDNGYGYFAANIDLMMIEEYPYVVIL | over 60%
Der p 2: major house dust mite allergen (protein, UniProt P49278 18-146, looked up) Mite group 2 allergen Der p 2: DQVDVKDCANHEIKKVLVPGCHGSEPCIIHRGKPFQLEAVFEANQNTKTAKIEIKASIDGLEVDVPGIDPNACHYMKCPLVKGQQYDIKYTWNVPKIAPKSENVVVTVKVMGDDGVLACAIATHAKIRD | over 60%
